This is a selection; strong and weak results do not stand in their true shares. The source made the active and inactive calls. Cut-off read from the data, not from the text of the source: active = activity change below about -70%; inconclusive = no clear call, values can overlap the other calls; inactive = above that.

The nature of this experiment: T. gondii ME49Luc in HeLa cells, luciferase assay, 72 h, no IFN-y (AID 1259421). As to conditions: stronger effect = lower value, concentration not given here.
Regarding `O=C1NC(=O)c2c1c(-c1ccccc1)cc1[nH]c3ccc(O)cc3c21`, the activity change, negative = inhibition is active: -83.3%.

The values above are taken from PubChem BioAssay AID1259421 (Broad Institute, 2018).
